# Test results from US20150353597A1 (TEXAS A AND M UNIVERSITY SYSTEM, published 2015).
# Experiments:
# [1] = molecular target: T1, C*-β-Gal (construct 8) (Escherichia coli (strain K12), UniProt P00722 1-1024 = β-galactosidase); assay: lysates mixed 10 min at room temperature, 0.4 M ammonium sulfate precipitation of the ELP complex, SDS-PAGE
# T1 construct: also called C*-β-galactosidase
# [2] = molecular target: C*-MBP (construct 10); assay: co-precipitation with ELP-N by ammonium sulfate
binder,measurement,setting,value
"ELP-N (construct 5) (other, also called ELP intein N-fragment) MGHGVGVPGVGVPGGGVPGAGVPGVGVPGVGVPGVGVPGGGVPGAGVPGGGVPGVGVPGVGVPGGGVPGAGVPGVGVPGVGVPGVGVPGGGVPGAGVPGGGVPGVGVPGVGVPGGGVPGAGVPGVGVPGVGVPGVGVPGGGVPGAGVPGGGVPGVGVPGVGVPGGGVPGAGVPGVGVPGVGVPGVGVPGGGVPGAGVPGGGVPGVGVPGVGVPGGGVPGAGVPGVGVPGVGVPGVGVPGGGVPGAGVPGGGVPGVGVPGVGVPGGGVPGAGVPGVGVPGVGVPGVGVPGGGVPGAGVPGGGVPGVGVPGVGVPGGGVPGAGVPGVGVPGVGVPGVGVPGGGVPGAGVPGGGVPGVGVPGVGVPGGGVPGAGVPGVGVPGVGVPGVGVPGGGVPGAGVPGGGVPGVGVPGVGVPGGGVPGAGVPGVGVPGVGVPGVGVPGGGVPGAGVPGGGVPGVGVPGVGVPGGGVPGAGVPGVGVPGVGVPGVGVPGGGVPGAGVPGGGVPGVGVPGVGVPGGGVPGAGVPGVGVPGVGVPGVGVPGGGVPGAGVPGGGVPGGLVSSNNNNNNNNNNLGIEGRISEFGGGGSGGGGSASCLSYETEILTVEYGLLPIGKIVEKRIECTVYSVDNNGNIYTQPVAQWHDRGEQEVFEYCLEDGSLIRATKDHKFMTVDGQMLPIDEIFERELDLMRVDNLPNLEHHHHHH",binding result,[1],binds
same,binding result,[2],binds
